From article PMC11234457 come the findings set out here.

Amino acid sequences for entries named in this document (tags omitted). Residues count along the entry.
UniProt P01106, 16-454: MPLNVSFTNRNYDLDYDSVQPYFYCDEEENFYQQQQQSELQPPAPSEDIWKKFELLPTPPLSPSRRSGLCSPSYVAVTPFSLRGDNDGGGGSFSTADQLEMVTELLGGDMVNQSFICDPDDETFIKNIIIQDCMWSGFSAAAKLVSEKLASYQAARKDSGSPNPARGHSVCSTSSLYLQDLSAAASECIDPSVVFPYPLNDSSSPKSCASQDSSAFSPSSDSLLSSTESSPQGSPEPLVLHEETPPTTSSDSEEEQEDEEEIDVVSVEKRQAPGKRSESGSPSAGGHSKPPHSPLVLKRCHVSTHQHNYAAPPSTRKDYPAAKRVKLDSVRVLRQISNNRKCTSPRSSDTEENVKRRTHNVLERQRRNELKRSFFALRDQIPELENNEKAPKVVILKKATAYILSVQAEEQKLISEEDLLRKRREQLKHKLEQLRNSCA

Data set [1] has as its target c-Myc (Homo sapiens) (UniProt P01106). The data set can be described thus: competition ELISA. The conditions noted are these: commercial protein, folded or branched DNA. For orientation: An ELISA detects its analyte on a solid surface through an enzyme-linked reagent.
For data set [2] the target is unchanged. The experiment in a line: BLI. The note with it: value order taken from MA9, MA9C1, "immobilized c-Myc" per legend, commercial protein.
The test system of data set [3] is c-Myc in overexpressing cell lysate. The experiment in a line: streptavidin pull-down. The note with it: 5' biotin directly on MA9C1 (thought to impair binding); protein in a lysate after overexpression; label: 5' biotin, FAM, cy3; folded or branched DNA.
Data set [4] has as its target His-c-Myc (UniProt P01106). The experiment in a line: flow cytometry of Ni-beads. The note with it: 200 nM FAM-aptamer, recombinant protein, protein details: His. For orientation: In flow cytometry, cells or beads pass a laser one at a time.
Data set [5] addresses His-c-Myc (UniProt P01106). The experiment in a line: flow cytometry. The conditions noted are these: 200 nM ProMyc; 5' NH2-C6 linked to pomalidomide-PEG4; recombinant protein; protein details: His; folded or branched DNA.
Data set [6] deals with endogenous c-Myc in HCT116 total protein (UniProt P01106). The data set can be described thus: streptavidin pull-down, LC-MS. The note with it: protein in an extract, label: 5' biotin (ELISA, pull-down), FAM (flow), single-stranded DNA.
Where [7] appears, read: vs biotin-MA9C1, 200 nM, no significant difference among linkers, 5' NH2-C6 linked to pomalidomide-PEG4.
The mark [8] stands for this setting: label: 5' biotin, FAM, cy3, folded or branched DNA.
The mark [9] stands for this setting: label: 5' biotin (ELISA, pull-down), FAM (flow), single-stranded DNA.

Construct, isoform or probe ends are uncertain for at least one entry. For some assays here: Results from cells or extracts need not show a direct contact. For some assays here: A negative result means that nothing was seen under these conditions. For some assays here: At least one verdict was read from the data and is not stated in words by the source.

“AAAAAAAAAAAAAAACGTTACTTCTGTTCGTTCTCATGGCGAACCCTGTATGGCGCGTAAGTCGGGGAGTAACGAAAAA [ProMyc-L15]”: the binding result in data set [1] (setting [7]) is reported as “binds”. The same measure, in the same setting: in the case of “AAAAAAAAAACGTTACTTCTGTTCGTTCTCATGGCGAACCCTGTATGGCGCGTAAGTCGGGGAGTAACG [ProMyc-L10]” it was “binds”; in that of “AAAAACGTTACTTCTGTTCGTTCTCATGGCGAACCCTGTATGGCGCGTAAGTCGGGGAGTAACG [ProMyc-L5]”, “binds”. Regarding “AAACGTTACTTCTGTTCGTTCTCATGGCGAACCCTGTATGGCGCGTAAGTCGGGGAGTAACGTAAAAAGAGCAACGCAGCAGGGGGCGTGAGGGCGGGAGCGGGGCGGCGGTGCTCAAAA [circPA1-ProMyc]”, the binding result in data set [1] (100 nM oligonucleotide, consistent with MA9C1, circular, A5 linker phosphorothioate, NH2-T (red T) linked to pomalidomide) is on record as “binds”. As a reminder, the Kd is the concentration at which binding is half-saturated. Lower therefore signals tighter binding. As for “CGTTACTTCTGTTCGTTCTCATGGCGAACCCTGTATGGCGCGTAAGTCGGGGAGTAACG [MA9C1]”, the Kd in data set [2] (setting [8]) amounted to 29.9 nM. For the same sequence, the binding result in data set [3] is on record as “no binding”; in data set [4] (setting [8]), “binds”. As to “CGTTACTTCTGTTCGTTCTCATGGCGAACCCTGTATGGCGCGTAAGTCGGGGAGTAACG [ProMyc]”, the binding result in data set [5] was “binds”.

In the case of “CGTTACTTCTGTTCGTTCTCATGGCGAACCCTGTATGGCGCGTAAGTCGGGGAGTAACGTCTGCCTAGTTCCTTGTCTGATCTCCA [MA9]”, the Kd in data set [2] (setting [9]) is 27.4 nM. The binding result in data set [4] (setting [9]) and in data set [6] was “binds” throughout.
